The subject of this data set is NurA + HerA. The experiment in a line: EMSA. The settings on record: NurA/HerA without SSB; EMSA: 5 pmol fluorescent DNA in 10 ul, 20 mM HEPES/NaOH pH 7.5, 35 mM beta-mercaptoethanol, 500 mM NaCl, 10 min room temperature; recombinant protein; single-stranded DNA. Background: Mobility shift assays separate free from complexed probe on a gel.

For at least one entry, the source does not settle the construct or the ends of the probe. At least one verdict rests on a figure or table, not on a statement of the authors.

As for GTTTTCCCAGTCACGAC [17 merTAMRA], the binding result is “binds”.

(Values after article PMC8910471, “The Finely Coordinated Action of SSB and NurA/HerA Complex Strictly Regulates the DNA End Resection Process in Saccharolobus solfataricus”.)
